Assay results published in patent US6995178B2, “Insecticidal anthranilamides” (E. I. du Pont de Nemours and Company, priority 2000, dated 2006).
Some results were stated once for a whole list of compounds, not compound by compound. Some compounds share one range, which may span the group rather than tell each member.

Test system: Diamondback Moth (DBM)—Plutella Xylostella
Test: Diamondback Moth (DBM) plant feeding damage test on radish plants
Format: in vivo
Conditions: sprayed at 250 ppm, 1 mL per test unit, 12-14 day old radish plant pre-infested with 10-15 neonate larvae, held 6 days at 25° C. and 70% relative humidity, replicated three times

| Compound | Plant feeding damage visually assessed on a scale of 0-10 (excellent levels of plant protection: ratings of 0-1, 10% or less feeding damage) |
| --- | --- |
| Cc1cc(C(F)(F)F)ccc1C(=O)Nc1c(F)cccc1C(=O)NC(C)C [Compound 188] | 0-1 |
| Cc1cccc(C(=O)NC2CCC2)c1NC(=O)c1ccc(OC(F)(F)F)cc1 [Compound 51] | 0-1 |
| Cc1cc(Br)c(NC(=O)c2ccc(C(F)(F)F)cc2)c(C(=O)NC(C)C)c1 [Compound 143] | 0-1 |
| CC(C)NC(=O)c1cccc(Cl)c1NC(=O)c1cc(Br)ccc1C(=O)N(C)C [Compound 216] | 0-1 |
| Cc1cccc(C(=O)NC(C)C)c1NC(=O)c1cc(C(F)(F)F)nn1-c1ccccc1C(F)(F)F [Compound D56] | 0-1 |
| Cc1cc(C)n(-c2cc(C(F)(F)F)ccc2C(=O)Nc2c(C)cccc2C(=O)NC(C)C)n1 [Compound 229] | 0-1 |
| Cc1cccc(C(=O)NC(C)C)c1NC(=O)c1cc(C(F)(F)F)nn1-c1cccc(F)c1 [Compound D54] | 0-1 |
| Cc1cccc(C(=O)NC2CC2)c1NC(=O)c1ccc(OC(F)(F)F)cc1 [Compound 102] | 0-1 |
| Cc1cccc(C(=O)NC(C)C)c1NC(=O)c1cc(C(F)(F)F)nn1C(C)C [Compound D74] | 0-1 |
| Cc1cc(Br)c(NC(=O)c2ccc(OC(F)(F)F)cc2)c(C(=O)NC(C)C)c1 [Compound 107] | 0-1 |
| Cc1cc(C(=O)Nc2c(Cl)cccc2C(=O)NC(C)C)n(-c2ccccc2)n1 [Compound D15] | 0-1 |
| Cc1cc(S(=O)(=O)C(F)F)ccc1C(=O)Nc1c(C)cccc1C(=O)NC(C)C [Compound 113] | 0-1 |
| Cc1cc(C(=O)Nc2c(C)cccc2C(=O)NC(C)C)n(C(C)(C)C)n1 [Compound D27] | 0-1 |
| Cc1cccc(C(=O)NC(C)C)c1NC(=O)c1ccc(C(F)(F)F)nc1-c1ccccc1 [Compound B30] | 0-1 |
| Cc1cccc(C(=O)NC(C)C)c1NC(=O)c1ccc(F)cc1C(F)(F)F [Compound 148] | 0-1 |
| CCC(C)NC(=O)c1cccc(C)c1NC(=O)c1cc(C(F)(F)F)nn1-c1ccccc1Cl (stereo not shown) [Compound D117] | 0-1 |
| Cc1cccc(C(=O)NC(C)C)c1NC(=O)c1ccc(C(F)(F)F)cc1-n1cccn1 [Compound 225] | 0-1 |
| Cc1cccc(C(=O)NC(C)C)c1NC(=O)c1cccc(C(F)(F)F)c1 [Compound 65] | 0-1 |
| CC(C)NC(=O)c1cccc(Cl)c1NC(=O)c1cnn(CC(F)(F)F)c1-c1ccccc1 [Compound F8] | 0-1 |
| Cc1nc(C(F)(F)F)ccc1C(=O)Nc1c(Br)cccc1C(=O)NC(C)C [Compound B49] | 0-1 |
| Cc1cccc(C(=O)NC(C)C)c1NC(=O)c1ccc(OC(F)(F)F)cc1 [Compound 1] | 0-1 |
| Cc1cc(C(F)(F)F)ccc1C(=O)Nc1cccc(Cl)c1C(=O)NC(C)C [Compound 3] | 0-1 |
